Laboratory results published in article PMC4935888.

Target: T1, recombinant viral envelope protein rVP28 with a GST tag (White spot syndrome virus) (UniProt Q9ICB7)
T1 sequence: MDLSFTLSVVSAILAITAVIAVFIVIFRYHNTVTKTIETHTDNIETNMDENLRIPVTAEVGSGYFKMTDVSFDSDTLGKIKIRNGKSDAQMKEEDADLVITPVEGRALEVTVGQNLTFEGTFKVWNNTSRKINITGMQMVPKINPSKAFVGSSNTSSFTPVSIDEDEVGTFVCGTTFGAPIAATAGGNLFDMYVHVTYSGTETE
Test: pull-down; Hpt cell lysate pulled down with rVP28, GST as control; anti-β-tubulin or anti-β-actin immunoblot; only the target purified

Substance	binding
Cq-β-actin	binds
Cq-β-tubulin	binds

No constants are given. Whether binding was seen depends on the method and setting. In cells and extracts the contact can be indirect. A result given as binding can be weak or reduced; the word gives no strength. Sequences can lack the tags named with a protein.
